One compound from patent US7335500B2, “Production of fucosylated carbohydrates by enzymatic fucosylation synthesis of sugar nucleotides; and in situ regeneration of GDP-fucose” (The Scripps Research Institute, priority 1991, dated 2008) can be followed below.

Amino acid sequences for entries named in this document (tags omitted). Residues count along the entry.
UniProt Q2KIM0, 23-468 limits assumed: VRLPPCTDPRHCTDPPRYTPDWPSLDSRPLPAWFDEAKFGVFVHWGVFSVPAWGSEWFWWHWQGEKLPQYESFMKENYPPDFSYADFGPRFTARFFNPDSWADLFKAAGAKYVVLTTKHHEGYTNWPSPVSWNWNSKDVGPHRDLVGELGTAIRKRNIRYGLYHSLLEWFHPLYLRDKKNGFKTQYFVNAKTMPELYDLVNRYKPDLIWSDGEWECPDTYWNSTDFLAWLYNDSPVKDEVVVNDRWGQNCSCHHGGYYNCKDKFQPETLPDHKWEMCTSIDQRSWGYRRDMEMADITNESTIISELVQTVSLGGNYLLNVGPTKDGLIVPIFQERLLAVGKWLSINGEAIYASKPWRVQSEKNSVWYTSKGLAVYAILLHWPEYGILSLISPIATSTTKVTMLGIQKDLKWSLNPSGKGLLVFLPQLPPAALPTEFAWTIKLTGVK

Each structure is given as a SMILES string. pKi: −log10 of the molar value. The match of structure and compound is tentative.

This experiment deals with α-fucosidase (Bos taurus, UniProt Q2KIM0). As to the kind of experiment: Inhibition of α-fucosidase by aza sugars. Type of experiment: biochemical.

The compound `C[C@@H]1N[C@H](CO)[C@@H](O)[C@@H]1O` gave a negative-log Ki (pKi) of 5.10.
